Results from PubChem BioAssay AID330 (DTP/NCI, 2004).
The list does not hold the whole screen: it gathers tests that were run many times, whatever their T/C, doses with no T/C, and many T/C values between a quarter and a half above the control. Other doses and runs of a compound stand elsewhere. T/C: endpoint of the treated group in % of that of the vehicle group. Some doses have a count of surviving animals in place of a T/C: the source holds a T/C of zero for them, seemingly a mark for toxic or unscored doses. Some survivor counts are full or nearly so, which does not show that the dose was tolerated: the source hardly ever lists a survival T/C far under the control, and the zero likely stands for such cases as well. Survivors were counted at the toxicity check, usually on the fifth day, unless a day is given; later deaths do not show. Schedules are NCI's codes, read here as Q, the interval in days (D) or hours (H), X, the number of doses. Some entries hold several experiments; their values stand side by side, smallest first. Some molecules as drawn cover several salts, stereoisomers or complexes of the source; a dose is that of the sample tested. Where survival is the endpoint, the PubChem record calls one and a half times the control and up active, and a quarter to a half above the control has no call in these data; cut-offs in other NCI protocols can differ. Some T/C values are followed by the survivors on the day toxicity was checked, most often the fifth; where none is given, no animal had died by that day.

Test system: P388 leukemia ip, CD2F1 mice, survival T/C
Assay: NCI In Vivo Anticancer Drug Screen. Data for tumor model P388 Leukemia (intraperitoneal) in CD2F1 (CDF1) mice
Conditions: T/C endpoint: median survival time, higher T/C = longer survival
[1] = dose: 200.0 mg/kg/injection, schedule: Q01DX009 (ip), vehicle: saline
[2] = dose: 50.0 mg/kg/injection, schedule: Q01DX009 (ip), vehicle: saline
[3] = dose: 100.0 mg/kg/injection, schedule: Q01DX009 (ip), vehicle: saline with Tween-80
[4] = dose: 100.0 mg/kg/injection, schedule: Q01DX005 (ip), vehicle: saline with Tween-80
[5] = dose: 200.0 mg/kg/injection, schedule: Q01DX005 (ip), vehicle: saline with Tween-80
[6] = dose: 50.0 mg/kg/injection, schedule: Q01DX009 (ip), vehicle: saline with Tween-80
[7] = dose: 200.0 mg/kg/injection, schedule: Q01DX009 (ip), vehicle: saline with Tween-80
[8] = dose: 240.0 mg/kg/injection, schedule: Q01DX005 (ip), vehicle: saline with Tween-80
[9] = dose: 50.0 mg/kg/injection, schedule: Q01DX005 (ip), vehicle: Klucel (hydroxypropylcellulose) (HPC)
[10] = dose: 100.0 mg/kg/injection, schedule: Q01DX005 (ip), vehicle: Klucel (hydroxypropylcellulose) (HPC)
[11] = dose: 100.0 mg/kg/injection, schedule: Q01DX005 (ip), vehicle: saline
[12] = dose: 240.0 mg/kg/injection, schedule: Q01DX005 (ip), vehicle: Klucel (hydroxypropylcellulose) (HPC)

SMILES: CCCCCCCC/C=C\CCCCCCCC(=O)OCC(COC(=O)CCCCCCC/C=C\CCCCCCCC)OC(=O)N(CCCl)CCCl
- T/C (dose: 60.0 mg/kg/injection, schedule: Q01DX005 (ip), vehicle: saline with Tween-80): 125 % of control
- T/C (dose: 120.0 mg/kg/injection, schedule: Q01DX005 (ip), vehicle: saline with Tween-80): 148 % of control

SMILES: O=C(O)C1=CO[C@@H](OC2OC(CO)C(O)C(O)C2O)[C@H]2[C@@H]1C=C[C@]2(O)CO (some centres not stated)
- survivor count (dose: 18.75 mg/kg/injection, schedule: Q01DX009 (ip), vehicle: Klucel (hydroxypropylcellulose) (HPC)): 5 of 6
- survivor count (dose: 37.5 mg/kg/injection, schedule: Q01DX009 (ip), vehicle: Klucel (hydroxypropylcellulose) (HPC)): 6 of 6
- survivor count (dose: 150.0 mg/kg/injection, schedule: Q01DX009 (ip), vehicle: Klucel (hydroxypropylcellulose) (HPC)): 6 of 6

SMILES: N=C(N)SCc1cccc(-c2nc3ccccc3c(=O)o2)c1
- survivor count [1]: 2 of 6

SMILES: CC(c1ccccc1)[P+](c1ccccc1)(c1ccccc1)c1ccccc1 (configuration not stated)
- T/C (dose: 3.13 mg/kg/injection, schedule: Q01DX009 (ip), vehicle: saline): 126 % of control
- survivor count (dose: 6.25 mg/kg/injection, schedule: Q01DX009 (ip), vehicle: saline): 5 of 6
- survivor count (dose: 12.5 mg/kg/injection, schedule: Q01DX009 (ip), vehicle: saline): 1 of 6
- survivor count (dose: 25.0 mg/kg/injection, schedule: Q01DX009 (ip), vehicle: saline): 0 of 6
- survivor count [2]: 0 of 6

SMILES: CCCCCCCC/C=C\CCCCCCCCN1CCOCC1
- survivor count [1]: 2 of 6

SMILES: CCN(CC)c1nc(N)nc(N)n1
- survivor count [2]: 6 of 6
- survivor count [3]: 3 of 6

SMILES: NC(Cc1cc(I)c(Oc2cc(I)c(O)c(I)c2)c(I)c1)C(=O)O (configuration not stated)
- survivor count (dose: 4.0 mg/kg/injection, schedule: Q01DX009 (ip), vehicle: saline): 6 of 6
- survivor count (dose: 8.0 mg/kg/injection, schedule: Q01DX009 (ip), vehicle: saline): 6 of 6
- survivor count (dose: 16.0 mg/kg/injection, schedule: Q01DX009 (ip), vehicle: saline): 6 of 6
- survivor count (dose: 32.0 mg/kg/injection, schedule: Q01DX009 (ip), vehicle: saline): 6 of 6
- survivor count (dose: 64.0 mg/kg/injection, schedule: Q01DX009 (ip), vehicle: saline): 6 of 6
- survivor count (dose: 128.0 mg/kg/injection, schedule: Q01DX009 (ip), vehicle: saline): 6 of 6

SMILES: CCCN(C)CC(C)(O)CNc1cc(OC)cc2cccnc12 (configuration not stated)
- survivor count [4]: 0 of 5
- survivor count [5]: 0 of 5

SMILES: CCCCOCN(CCCN(C)C)COCCCC
- T/C [6]: 127 % of control
- T/C [3]: 130 % of control
- survivor count [7]: 5 of 6

SMILES: O=C1C=C(CCC2=CC(=O)c3ccccc3C2=O)C(=O)c2ccccc21
- survivor count [8]: 6 of 6

SMILES: O=c1[nH]nc(SCc2ccc(Cl)cc2Cl)c(=O)[nH]1
- survivor count (dose: 25.0 mg/kg/injection, schedule: Q01DX005 (ip), vehicle: Klucel (hydroxypropylcellulose) (HPC)): 6 of 6
- survivor count [9]: 6 of 6
- survivor count [10]: 6 of 6
- survivor count (dose: 200.0 mg/kg/injection, schedule: Q01DX005 (ip), vehicle: Klucel (hydroxypropylcellulose) (HPC)): 6 of 6

SMILES: Cc1ccc(Oc2nc(=O)c3c(o2)CC(C)(C)C3)cc1
- T/C [3]: 133 % of control [5 of 6 alive]
- survivor count [7]: 0 of 6 and 3 of 6

SMILES: N#CC(=C1N=c2ccccc2=N1)c1[nH]c(O)c2ccccc12
- survivor count [6]: 6 of 6
- survivor count [3]: 6 of 6
- survivor count [7]: 5 of 6

SMILES: C/C(=N/NC(=S)N1CCCCCC1)c1ncccn1
- T/C (dose: 25.0 mg/kg/injection, schedule: Q01DX005 (ip), vehicle: saline with Tween-80): 125 % of control
- survivor count (dose: 50.0 mg/kg/injection, schedule: Q01DX005 (ip), vehicle: saline with Tween-80): 5 of 6
- survivor count [4]: 1 of 6
- survivor count [5]: 0 of 6

SMILES: Cc1cc(OP2(=O)Nc3ccccc3-c3ccccc3N2)ccc1Cl
- survivor count [5]: 6 of 6

SMILES: CCCCCCCCCCCC(=O)NCCCCCC(=O)NC1C(C)OC(Nc2ncnc3nc[nH]c23)C(O)C1O (configuration not stated)
- survivor count (dose: 4.0 mg/kg/injection, schedule: Q01DX009 (ip), vehicle: distilled water + Tween-80): 6 of 6
- T/C (dose: 16.0 mg/kg/injection, schedule: Q01DX009 (ip), vehicle: water): 128 % of control

SMILES: S=c1[nH][nH]c(=S)s1
- survivor count (dose: 100.0 mg/kg/injection, schedule: Q01DX009 (ip), vehicle: Klucel (hydroxypropylcellulose) (HPC)): 5 of 6
- survivor count (dose: 200.0 mg/kg/injection, schedule: Q01DX009 (ip), vehicle: Klucel (hydroxypropylcellulose) (HPC)): 3 of 6

SMILES: CC1C(c2ccccc2)OCN1C (configuration not stated)
- T/C [11]: 130 % of control
- survivor count [11]: 0 of 6 and 3 of 6
- survivor count (dose: 200.0 mg/kg/injection, schedule: Q01DX005 (ip), vehicle: saline): 1 of 6 and 4 of 6

SMILES: O=[N+]([O-])C1=NOCC1
- survivor count (dose: 200.0 mg/kg/injection, schedule: Q01DX005 (ip), vehicle: suspension in saline): 0 of 6

SMILES: Fc1cccc(Cl)c1C(Nc1cnccn1)Nc1cnccn1
- survivor count [12]: 1 of 6

SMILES: COP(=O)(CS(=O)(=O)Oc1ccc(S(C)(=O)=O)cc1)OC
- survivor count [9]: 0 of 6
- survivor count [10]: 0 of 6

SMILES: COC(=O)C12c3ccccc3C3C(c4ccccc41)C32 (configuration not stated)
- survivor count (dose: 400.0 mg/kg/injection, schedule: Q04DX003 (ip), vehicle: saline): 5 of 6

SMILES: O=C(O)Cc1nn[nH]n1
- survivor count (dose: 400.0 mg/kg/injection, schedule: Q04DX003 (ip), vehicle: Klucel (hydroxypropylcellulose) (HPC)): 6 of 6

SMILES: COC(=O)c1nc(N)nc(C(=O)OC)c1C(=O)c1ccc([N+](=O)[O-])cc1
- survivor count [8]: 0 of 6

SMILES: CC(C)Sc1ncnc2nc[nH]c12
- survivor count (dose: 400.0 mg/kg/injection, schedule: Q04DX003 (ip), vehicle: saline with Tween-80): 3 of 6

SMILES: CC(C)CC(NC(c1ccccc1)(c1ccccc1)c1ccccc1)C(=O)O (configuration not stated)
- survivor count [12]: 2 of 6

SMILES: CC(=O)N1c2ccccc2Sc2ccc3ccc(C(=O)CCl)cc3c21
- T/C [6]: 133 % of control
- survivor count [7]: 4 of 6

SMILES: c1ccc2c[n+](CC[n+]3ccc4ccccc4c3)ccc2c1
- survivor count [3]: 6 of 6

SMILES: CC(C)NCC(O)c1ccccc1Cl (configuration not stated)
- survivor count [4]: 4 of 6
- survivor count [5]: 0 of 6

SMILES: O=S(=O)(O)O.[NH-]CCC[NH-].[Pt+2]
- survivor count (dose: 25.0 mg/kg/injection, schedule: Q04DX002 (ip), vehicle: saline): 1 of 6

SMILES: Cc1cc(NCCCNCCCNc2cc(C)nc3cc(N)ccc23)c2ccc(N)cc2n1
- T/C (dose: 6.25 mg/kg/injection, schedule: Q01DX009 (ip), vehicle: other): 138 % of control
- survivor count (dose: 25.0 mg/kg/injection, schedule: Q01DX009 (ip), vehicle: other): 0 of 6
- survivor count (dose: 50.0 mg/kg/injection, schedule: Q01DX009 (ip), vehicle: other): 0 of 6
- survivor count (dose: 100.0 mg/kg/injection, schedule: Q01DX009 (ip), vehicle: other): 0 of 6

SMILES: [CH3][Sn]([CH3])([S]CCS(=O)(=O)O)[S]CCS(=O)(=O)O
- T/C (dose: 60.0 mg/kg/injection, schedule: Q01DX005 (ip), vehicle: saline): 125 % of control
- survivor count (dose: 120.0 mg/kg/injection, schedule: Q01DX005 (ip), vehicle: saline): 3 of 6
- survivor count (dose: 240.0 mg/kg/injection, schedule: Q01DX005 (ip), vehicle: saline): 0 of 6

SMILES: CCCCCCCCCCCC[N+]1([O-])CCCCCC1
- survivor count (dose: 100.0 mg/kg/injection, schedule: Q01DX009 (ip), vehicle: saline): 2 of 6
- survivor count [1]: 0 of 6

SMILES: CC1C(=O)C=C(c2ccccc2)C1(O)c1ccccc1 (configuration not stated)
- survivor count (dose: 400.0 mg/kg/injection, schedule: Q01DX001 (ip), vehicle: saline with Tween-80): 4 of 6
